The values below come from US20180185444A1.

By UniProt entry, the sequences of proteins in these tests, tags left out. Where a name states a change or a piece, a line headed by the entry shows the natural chain unless it says otherwise.
UniProt O00168: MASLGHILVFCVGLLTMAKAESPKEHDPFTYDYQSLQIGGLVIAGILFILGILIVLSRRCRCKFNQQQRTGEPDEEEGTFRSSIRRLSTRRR

Results are given in words; binding and its absence hold for the method and conditions named. Binding seen in cells or lysates may run through a third protein. Some entries that bind do so weakly or less than the wild type.

The assay deals with T1, endothelial nitric oxide synthase (human) (UniProt P29474).
T1 sequence (looked up): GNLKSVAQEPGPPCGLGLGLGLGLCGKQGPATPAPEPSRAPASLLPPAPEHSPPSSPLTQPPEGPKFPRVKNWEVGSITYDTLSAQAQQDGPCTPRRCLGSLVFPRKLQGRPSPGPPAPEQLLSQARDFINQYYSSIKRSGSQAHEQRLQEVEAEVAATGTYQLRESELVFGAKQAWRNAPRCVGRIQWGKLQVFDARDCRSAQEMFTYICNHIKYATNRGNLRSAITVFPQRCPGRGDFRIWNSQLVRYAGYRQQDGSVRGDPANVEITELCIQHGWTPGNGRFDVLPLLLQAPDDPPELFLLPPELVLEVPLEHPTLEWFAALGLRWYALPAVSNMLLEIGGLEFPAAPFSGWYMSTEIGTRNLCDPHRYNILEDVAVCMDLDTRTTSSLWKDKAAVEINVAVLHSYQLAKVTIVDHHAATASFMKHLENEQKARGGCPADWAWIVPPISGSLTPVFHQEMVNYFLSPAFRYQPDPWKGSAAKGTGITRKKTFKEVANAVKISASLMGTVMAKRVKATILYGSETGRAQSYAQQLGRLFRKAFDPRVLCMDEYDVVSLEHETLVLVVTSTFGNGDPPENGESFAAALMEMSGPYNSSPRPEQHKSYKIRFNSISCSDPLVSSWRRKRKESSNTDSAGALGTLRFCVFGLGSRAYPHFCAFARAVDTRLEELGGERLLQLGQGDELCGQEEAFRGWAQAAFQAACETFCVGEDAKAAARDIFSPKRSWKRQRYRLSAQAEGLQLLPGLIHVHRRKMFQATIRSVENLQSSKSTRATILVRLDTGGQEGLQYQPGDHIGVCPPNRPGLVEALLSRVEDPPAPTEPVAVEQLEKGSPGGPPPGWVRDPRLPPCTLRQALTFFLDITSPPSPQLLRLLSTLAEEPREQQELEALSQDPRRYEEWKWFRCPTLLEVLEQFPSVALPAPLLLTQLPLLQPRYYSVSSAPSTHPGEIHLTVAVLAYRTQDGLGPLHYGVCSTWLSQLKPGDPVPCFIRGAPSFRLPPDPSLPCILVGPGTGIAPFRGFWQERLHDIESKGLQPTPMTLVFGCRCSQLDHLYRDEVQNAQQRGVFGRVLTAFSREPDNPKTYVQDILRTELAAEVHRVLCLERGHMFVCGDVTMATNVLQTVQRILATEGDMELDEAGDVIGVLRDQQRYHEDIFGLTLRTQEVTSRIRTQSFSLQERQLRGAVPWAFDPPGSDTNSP
Description: co-immunoprecipitation from HUVEC lysate, western blot. (In general: A western blot detects proteins with antibodies after separation by electrophoresis.)

Consider FXYD1 (from UniProt O00168 21-92), for which the binding result was “binds”.
